Measured values as given in article PMC3187750, “Functional Analysis of the Cytoskeleton Protein MreB from Chlamydophila pneumoniae” (PLoS ONE, 2011).

Biological target: T1, MreB from Chlamydophila pneumoniae, wild type, C-terminal His6 tag (C. pneumoniae GiD)
T1 sequence: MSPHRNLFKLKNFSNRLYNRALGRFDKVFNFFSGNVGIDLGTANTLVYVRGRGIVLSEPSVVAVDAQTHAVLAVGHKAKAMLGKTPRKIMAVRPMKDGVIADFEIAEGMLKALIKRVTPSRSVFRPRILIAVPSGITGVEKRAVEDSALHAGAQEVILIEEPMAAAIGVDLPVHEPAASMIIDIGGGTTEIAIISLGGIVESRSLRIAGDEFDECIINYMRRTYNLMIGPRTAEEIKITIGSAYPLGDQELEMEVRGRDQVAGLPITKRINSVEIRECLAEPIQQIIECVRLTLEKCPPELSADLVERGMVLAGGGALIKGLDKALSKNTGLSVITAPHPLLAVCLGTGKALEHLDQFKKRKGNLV
Test: co-sedimentation; both purified

binding: binds
Substance: MurF from C. pneumoniae (enzyme)

No constants are given. Whether binding was seen depends on the method and setting. A result given as binding can be weak or reduced; the word gives no strength. Tags and fused reporters may be left off the sequences shown.
